No constants are given. Whether binding was seen depends on the method and setting. Binding seen in cells or lysates may run through a third protein. A result given as binding can be weak or reduced; the word gives no strength. Sequences can lack the tags named with a protein.

The target in the assay is T1, Flag-B4GALT5 (porcine β-1,4 galactosyltransferase V) (porcine).
T1 sequence: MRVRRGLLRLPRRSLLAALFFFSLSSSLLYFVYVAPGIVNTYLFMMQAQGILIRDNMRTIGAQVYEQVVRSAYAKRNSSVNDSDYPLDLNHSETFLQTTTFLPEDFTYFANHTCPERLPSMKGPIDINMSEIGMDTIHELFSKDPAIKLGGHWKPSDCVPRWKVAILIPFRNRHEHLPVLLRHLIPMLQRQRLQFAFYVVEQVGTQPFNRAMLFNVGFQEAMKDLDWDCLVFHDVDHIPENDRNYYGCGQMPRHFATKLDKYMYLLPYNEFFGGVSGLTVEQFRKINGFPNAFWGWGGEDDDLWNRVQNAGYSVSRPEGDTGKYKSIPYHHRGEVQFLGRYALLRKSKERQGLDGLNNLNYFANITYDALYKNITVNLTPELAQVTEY
Briefly: co-IP; 3D4/21 cells co-transfected with GP5-Myc and Flag-B4GALT5; lysate precipitated with mouse anti-Flag mAb Sepharose beads (legend: anti-Flag mAb with protein A Sepharose), Western blot with anti-Myc antibody. For orientation: Immunoblotting shows a protein as a band on a membrane.

In the case of “GP5-Myc (glycoprotein 5 of PRRSV JXwn06)”, the binding entry is given as “binds”.

For the origin of these results see publication PMC5837993.
